Patent publication US11655492B2, “Activated formylglycine-generating enzymes and methods of producing and using the same” (R.P. Scherer Technologies, LLC, priority 2015, dated 2023)

B1: Sc-FGE: Streptomyces coelicolor formylglycine-generating enzyme, UniProt Q9F3C7, N-terminal hexahistidine tag, expressed in E. coli (protein)
chain: MAVAAPSPAAAAEPGPAARPRSTRGQVRLPGGEFAMGDAFGEGYPADGETPVHTVRLRPFHIDETAVTNARFAAFVKATGHVTDAERFGSSAVFHLVVAAPDADVLGSAAGAPWWINVRGAHWRRPEGARSDITGRPNHPVVHVSWNDATAYARWAGKRLPTEAEWEYAARGGLAGRRYAWGDELTPGGRWRCNIWQGRFPHVNTAEDGHLSTAPVKSYRPNGHGLWNTAGNVWEWCSDWFSPTYYAESPTVDPHGPGTGAARVLRGGSYLCHDSYCNRYRVAARSSNTPDSSSGNLGFRCANDADLTSGSAAE
modifications: left off: small tags and cut ends
notes: Streptomyces coelicolor formylglycine-generating enzyme, UniProt Q9F3C7, N-terminal hexahistidine tag, expressed in E. coli
B2: Hs-cFGE: catalytic core of H. sapiens FGE with C-terminal His6 tag (SEQ ID NO. 11), expressed in Hi5 insect cells (protein)
chain: DRSLEANAPGPVPGERQLAHSKMVPIPAGVFTMGTDDPQIKQDGEAPARRVTIDAFYMDAYEVSNTEFEKFVNSTGYLTEVAAAPWWLPVKGANWRHPEGPDSTILHRPDHPVLHVSWNDAVAYCTWAGKRLPTEAEWEYSCRGGLHNRLFPWGNKLQPKGQHYANIWQGEFPVTNTGEDGFQGTAPVDAFPPNGYGLYNIVGNAWEWTSDWWTVHHSVEETLNPKGPPSGKDRVKKGGSYMCHRSYCYRYRCAARSQNTPDSSASNLGFRCAADRLPTMDKGENLYFQGHHHHHH
B3: Hs-FGE: full length wild-type human FGE containing the N-terminal extension and the core, UniProt Q8NBK3 (protein, UniProt Q8NBK3 1-374, looked up)
chain: MAAPALGLVCGRCPELGLVLLLLLLSLLCGAAGSQEAGTGAGAGSLAGSCGCGTPQRPGAHGSSAAAHRYSREANAPGPVPGERQLAHSKMVPIPAGVFTMGTDDPQIKQDGEAPARRVTIDAFYMDAYEVSNTEFEKFVNSTGYLTEAEKFGDSFVFEGMLSEQVKTNIQQAVAAAPWWLPVKGANWRHPEGPDSTILHRPDHPVLHVSWNDAVAYCTWAGKRLPTEAEWEYSCRGGLHNRLFPWGNKLQPKGQHYANIWQGEFPVTNTGEDGFQGTAPVDAFPPNGYGLYNIVGNAWEWTSDWWTVHHSVEETLNPKGPPSGKDRVKKGGSYMCHRSYCYRYRCAARSQNTPDSSASNLGFRCAADRLPTMD
modifications: full-length
notes: full length wild-type human FGE containing the N-terminal extension and the core, UniProt Q8NBK3
B4: Sc-FGE + Cu: Sc-FGE preparation after activation with copper (protein, UniProt Q9F3C7 1-314, looked up)
Formylglycine-generating …: MAVAAPSPAAAAEPGPAARPRSTRGQVRLPGGEFAMGDAFGEGYPADGETPVHTVRLRPFHIDETAVTNARFAAFVKATGHVTDAERFGSSAVFHLVVAAPDADVLGSAAGAPWWINVRGAHWRRPEGARSDITGRPNHPVVHVSWNDATAYARWAGKRLPTEAEWEYAARGGLAGRRYAWGDELTPGGRWRCNIWQGRFPHVNTAEDGHLSTAPVKSYRPNGHGLWNTAGNVWEWCSDWFSPTYYAESPTVDPHGPGTGAARVLRGGSYLCHDSYCNRYRVAARSSNTPDSSSGNLGFRCANDADLTSGSAAE
modifications: copper-activated
B5: Hs-FGE + Cu: human FGE preparation after activation with copper (probably Hs-cFGE) (protein, UniProt Q8NBK3 34-374, looked up)
Formylglycine-generating …: SQEAGTGAGAGSLAGSCGCGTPQRPGAHGSSAAAHRYSREANAPGPVPGERQLAHSKMVPIPAGVFTMGTDDPQIKQDGEAPARRVTIDAFYMDAYEVSNTEFEKFVNSTGYLTEAEKFGDSFVFEGMLSEQVKTNIQQAVAAAPWWLPVKGANWRHPEGPDSTILHRPDHPVLHVSWNDAVAYCTWAGKRLPTEAEWEYSCRGGLHNRLFPWGNKLQPKGQHYANIWQGEFPVTNTGEDGFQGTAPVDAFPPNGYGLYNIVGNAWEWTSDWWTVHHSVEETLNPKGPPSGKDRVKKGGSYMCHRSYCYRYRCAARSQNTPDSSASNLGFRCAADRLPTMD
modifications: copper-activated

Test: ICP-MS copper and calcium content of FGE preparations
Details: for Ca (ratio) / Cu (ratio): mol ratio to protein

Molecule	copper content (after activation in vitro) [Cu/FGE]	copper content (as purified) [Cu/FGE]	Ca (ratio)	Cu (ratio)	copper content (unactivated, as isolated)
B1	1.1	~0.01	2.84	0.01	almost no copper
B2		0.34	0.48	0.34	0.35 mol Cu per mol FGE
B3	1.4				
B4			0.85	1.16	
B5			1.51	1.38	
